Laboratory results published in patent US20170319645A1.
Results are given in words; binding and its absence hold for the method and conditions named. Some results given as binding are weak or reduced against the parent protein; the word gives no strength.

T1: Insulin-degrading enzyme (IDE) (UniProt P14735)
T1 sequence (looked up): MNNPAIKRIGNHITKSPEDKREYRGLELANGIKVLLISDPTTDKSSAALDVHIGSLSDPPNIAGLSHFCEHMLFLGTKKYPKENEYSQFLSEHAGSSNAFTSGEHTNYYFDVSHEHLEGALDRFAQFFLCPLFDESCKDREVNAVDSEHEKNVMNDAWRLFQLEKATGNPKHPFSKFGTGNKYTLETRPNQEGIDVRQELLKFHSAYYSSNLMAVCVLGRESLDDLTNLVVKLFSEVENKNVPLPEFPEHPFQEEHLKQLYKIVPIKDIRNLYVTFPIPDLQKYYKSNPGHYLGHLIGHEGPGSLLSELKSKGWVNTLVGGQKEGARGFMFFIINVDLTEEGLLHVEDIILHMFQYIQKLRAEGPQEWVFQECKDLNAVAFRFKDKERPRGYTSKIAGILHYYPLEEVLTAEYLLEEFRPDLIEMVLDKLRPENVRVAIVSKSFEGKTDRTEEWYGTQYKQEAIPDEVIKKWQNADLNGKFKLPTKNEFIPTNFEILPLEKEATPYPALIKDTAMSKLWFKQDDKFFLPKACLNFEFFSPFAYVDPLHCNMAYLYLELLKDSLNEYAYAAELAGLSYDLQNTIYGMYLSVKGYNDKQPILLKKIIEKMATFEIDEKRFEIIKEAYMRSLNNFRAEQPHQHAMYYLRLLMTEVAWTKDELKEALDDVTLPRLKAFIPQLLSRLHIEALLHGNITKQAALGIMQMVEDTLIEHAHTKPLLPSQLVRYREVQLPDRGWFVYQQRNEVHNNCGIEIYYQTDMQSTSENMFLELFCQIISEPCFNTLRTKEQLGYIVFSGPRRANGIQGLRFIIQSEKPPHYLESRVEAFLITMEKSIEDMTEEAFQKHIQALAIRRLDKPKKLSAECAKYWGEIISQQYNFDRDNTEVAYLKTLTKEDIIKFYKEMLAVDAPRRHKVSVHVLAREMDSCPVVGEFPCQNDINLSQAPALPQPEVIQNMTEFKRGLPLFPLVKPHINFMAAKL


Molecular target: T1, Insulin-degrading enzyme (IDE)
Assay: Differential Shift Assay (thermal shift)

| binding | Binder |
| --- | --- |
| binds | MVRIKEGSANKPSDD [PIF mutant 1 (mut1, P6->E6)] |
| binds | MVRGKPGSANKPSDD [PIF mutant 3 (mut3, I4->G4)] |
